Measured data: PubChem BioAssay AID1224830 (NIAID, 2016)
The deposit covers about 18,000 reagents; this is an unselected part. In the full data, about 2,900 (16%) got an active call. 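Calls are made per well; low scores hint the gene aids the LPS response, high scores that it dampens it.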 Repeated entries: four replicate wells of each siRNA pool.

Purpose: 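Genes whose knock-down alters the TNF-alpha reporter response to LPS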 (primary screen)
System: human THP-1 monocytic leukaemia cells, TNF dual-luciferase reporter clone, PMA-differentiated to macrophage-like cells
Reagents: siRNA pool against human genes, 50 nM
Duration: LPS for 4 h, given about 3 days after siRNA transfection
Treatment: bacterial LPS (TLR4 ligand), 10 ng/ml
Measurement: 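Ratio of firefly to renilla light, scaled to the plate median and expressed as a robust z-score per replicate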
Scale: TNF reporter robust z-score: higher = stronger TNF reporter response to LPS
Active means: 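a well is active when its z-score exceeds 2.8 or falls below -1.5; control wells carry no call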

gene symbol	TNF reporter robust z-score	Outcome
IL1RAPL2 (GeneID 26280)	-0.87	inactive
IL1RAPL2 (GeneID 26280)	1.16	inactive
IL1RAPL2 (GeneID 26280)	-0.3	inactive
IL1RAPL2 (GeneID 26280)	0.52	inactive
OR52N5 (GeneID 390075)	-0.72	inactive
OR52N5 (GeneID 390075)	0.24	inactive
OR52N5 (GeneID 390075)	-0.11	inactive
OR52N5 (GeneID 390075)	-0.25	inactive
SYS1 (GeneID 90196)	-0.15	inactive
SYS1 (GeneID 90196)	-0.47	inactive
SYS1 (GeneID 90196)	0.05	inactive
SYS1 (GeneID 90196)	-0.44	inactive
PIGS (GeneID 94005)	0.25	inactive
PIGS (GeneID 94005)	1.1	inactive
PIGS (GeneID 94005)	1.43	inactive
PIGS (GeneID 94005)	1.27	inactive
SCAMP3 (GeneID 10067)	1.58	inactive
SCAMP3 (GeneID 10067)	-0.58	inactive
SCAMP3 (GeneID 10067)	1.05	inactive
SCAMP3 (GeneID 10067)	0.51	inactive
RAB3C (GeneID 115827)	-0.09	inactive
RAB3C (GeneID 115827)	-0.42	inactive
RAB3C (GeneID 115827)	-0.52	inactive
RAB3C (GeneID 115827)	-1.01	inactive
KRTAP5-1 (GeneID 387264)	1.1	inactive
KRTAP5-1 (GeneID 387264)	0.53	inactive
KRTAP5-1 (GeneID 387264)	0.7	inactive
KRTAP5-1 (GeneID 387264)	1.69	inactive
POU4F2 (GeneID 5458)	0.22	inactive
POU4F2 (GeneID 5458)	-0.08	inactive
POU4F2 (GeneID 5458)	-0.6	inactive
POU4F2 (GeneID 5458)	-0.5	inactive
CPEB1 (GeneID 64506)	-0.22	inactive
CPEB1 (GeneID 64506)	0.11	inactive
CPEB1 (GeneID 64506)	0.94	inactive
CPEB1 (GeneID 64506)	3.87	active
ARSH (GeneID 347527)	1.95	inactive
ARSH (GeneID 347527)	0.9	inactive
ARSH (GeneID 347527)	1.69	inactive
ARSH (GeneID 347527)	1.93	inactive
CITED2 (GeneID 10370)	-0.22	inactive
CITED2 (GeneID 10370)	0.38	inactive
CITED2 (GeneID 10370)	-1.03	inactive
CITED2 (GeneID 10370)	1.11	inactive
SLC25A41 (GeneID 284427)	3.43	active
SLC25A41 (GeneID 284427)	3.11	active
SLC25A41 (GeneID 284427)	1.42	inactive
SLC25A41 (GeneID 284427)	2.46	inactive
IMPG1 (GeneID 3617)	0.34	inactive
IMPG1 (GeneID 3617)	0	inactive
IMPG1 (GeneID 3617)	0.31	inactive
IMPG1 (GeneID 3617)	0.91	inactive
PASD1 (GeneID 139135)	0.57	inactive
PASD1 (GeneID 139135)	0.75	inactive
PASD1 (GeneID 139135)	0.07	inactive
PASD1 (GeneID 139135)	-0.29	inactive
TBX22 (GeneID 50945)	0.13	inactive
TBX22 (GeneID 50945)	-0.02	inactive
TBX22 (GeneID 50945)	0.37	inactive
TBX22 (GeneID 50945)	0.4	inactive
SGCE (GeneID 8910)	0.16	inactive
SGCE (GeneID 8910)	-0.29	inactive
SGCE (GeneID 8910)	-0.67	inactive
SGCE (GeneID 8910)	-1.27	inactive
HOOK2 (GeneID 29911)	-1.31	inactive
HOOK2 (GeneID 29911)	-0.98	inactive
HOOK2 (GeneID 29911)	-1.26	inactive
HOOK2 (GeneID 29911)	0.4	inactive
KCNJ3 (GeneID 3760)	-0.17	inactive
KCNJ3 (GeneID 3760)	0.01	inactive
KCNJ3 (GeneID 3760)	-0.35	inactive
KCNJ3 (GeneID 3760)	0.87	inactive
LACTB2 (GeneID 51110)	0.51	inactive
LACTB2 (GeneID 51110)	1.47	inactive
LACTB2 (GeneID 51110)	0.19	inactive
LACTB2 (GeneID 51110)	1.06	inactive
LRCH4 (GeneID 4034)	0.7	inactive
LRCH4 (GeneID 4034)	0.14	inactive
LRCH4 (GeneID 4034)	-0.63	inactive
LRCH4 (GeneID 4034)	0.44	inactive
BMPR1A (GeneID 657)	0.79	inactive
BMPR1A (GeneID 657)	0.03	inactive
BMPR1A (GeneID 657)	1.74	inactive
BMPR1A (GeneID 657)	0.88	inactive
COTL1 (GeneID 23406)	-1.14	inactive
COTL1 (GeneID 23406)	-1.03	inactive
COTL1 (GeneID 23406)	-1.06	inactive
NARF (GeneID 26502)	0.89	inactive
NARF (GeneID 26502)	0.02	inactive
NARF (GeneID 26502)	0.33	inactive
NARF (GeneID 26502)	0.38	inactive
PLBD1 (GeneID 79887)	3.23	active
PLBD1 (GeneID 79887)	2.93	active
PLBD1 (GeneID 79887)	2.55	inactive
PLBD1 (GeneID 79887)	6.46	active
OTUD7A (GeneID 161725)	0.23	inactive
OTUD7A (GeneID 161725)	0	inactive
OTUD7A (GeneID 161725)	-0.73	inactive
OTUD7A (GeneID 161725)	-0.78	inactive
SNRPA (GeneID 6626)	-0.2	inactive
SNRPA (GeneID 6626)	-0.93	inactive
SNRPA (GeneID 6626)	-0.61	inactive
SNRPA (GeneID 6626)	-0.03	inactive
CIC (GeneID 23152)	-0.85	inactive
CIC (GeneID 23152)	-0.13	inactive
CIC (GeneID 23152)	-0.58	inactive
CIC (GeneID 23152)	-0.56	inactive
COL20A1 (GeneID 57642)	-1.24	inactive
COL20A1 (GeneID 57642)	-1.58	active
COL20A1 (GeneID 57642)	-1.75	active
COL20A1 (GeneID 57642)	-1.52	active

13 successive reagents already listed:
gene symbol	TNF reporter robust z-score	Outcome
SCAMP3 (GeneID 10067)	0.51	inactive
RAB3C (GeneID 115827)	-0.09	inactive
RAB3C (GeneID 115827)	-0.42	inactive
RAB3C (GeneID 115827)	-0.52	inactive
RAB3C (GeneID 115827)	-1.01	inactive
KRTAP5-1 (GeneID 387264)	1.1	inactive
KRTAP5-1 (GeneID 387264)	0.53	inactive
KRTAP5-1 (GeneID 387264)	0.7	inactive
KRTAP5-1 (GeneID 387264)	1.69	inactive
POU4F2 (GeneID 5458)	0.22	inactive
POU4F2 (GeneID 5458)	-0.08	inactive
POU4F2 (GeneID 5458)	-0.6	inactive
POU4F2 (GeneID 5458)	-0.5	inactive
